± gives the standard deviation of the averaged measurements. The entries are a selection whose mix differs from that of the whole data set. Small differences around the control level are noise.

Sequences of proteins named here, by UniProt entry; tags and fusion partners are left off. A change or cut given only in a name is not applied to a line headed by its entry.
UniProt Q9GZM8: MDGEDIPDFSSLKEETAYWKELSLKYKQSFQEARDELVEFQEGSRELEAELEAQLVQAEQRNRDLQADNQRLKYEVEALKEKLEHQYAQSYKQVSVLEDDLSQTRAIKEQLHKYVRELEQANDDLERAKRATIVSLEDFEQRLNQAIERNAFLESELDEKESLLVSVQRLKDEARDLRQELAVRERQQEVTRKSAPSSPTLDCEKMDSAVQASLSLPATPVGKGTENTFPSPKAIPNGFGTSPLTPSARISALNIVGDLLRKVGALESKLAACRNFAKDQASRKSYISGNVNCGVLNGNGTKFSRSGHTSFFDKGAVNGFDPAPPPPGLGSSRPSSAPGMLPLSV
UniProt Q9H773: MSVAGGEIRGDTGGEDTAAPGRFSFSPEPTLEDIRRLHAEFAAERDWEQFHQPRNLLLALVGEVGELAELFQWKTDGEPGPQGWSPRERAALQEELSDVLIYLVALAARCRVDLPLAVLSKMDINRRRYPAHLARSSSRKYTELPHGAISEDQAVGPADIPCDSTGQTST
UniProt Q9HBU6: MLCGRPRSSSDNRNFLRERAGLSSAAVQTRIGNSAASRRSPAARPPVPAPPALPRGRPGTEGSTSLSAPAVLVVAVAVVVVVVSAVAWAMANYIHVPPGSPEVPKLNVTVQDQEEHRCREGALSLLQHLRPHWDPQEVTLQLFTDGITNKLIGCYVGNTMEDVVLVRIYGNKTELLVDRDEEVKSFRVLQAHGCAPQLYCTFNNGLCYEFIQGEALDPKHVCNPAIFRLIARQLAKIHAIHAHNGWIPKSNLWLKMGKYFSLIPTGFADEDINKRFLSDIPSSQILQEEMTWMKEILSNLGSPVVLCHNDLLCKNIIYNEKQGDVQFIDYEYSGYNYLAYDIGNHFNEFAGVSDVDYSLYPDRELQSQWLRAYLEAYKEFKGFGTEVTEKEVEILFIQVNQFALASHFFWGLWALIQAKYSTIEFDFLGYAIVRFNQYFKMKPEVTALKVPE
UniProt Q9H0C5: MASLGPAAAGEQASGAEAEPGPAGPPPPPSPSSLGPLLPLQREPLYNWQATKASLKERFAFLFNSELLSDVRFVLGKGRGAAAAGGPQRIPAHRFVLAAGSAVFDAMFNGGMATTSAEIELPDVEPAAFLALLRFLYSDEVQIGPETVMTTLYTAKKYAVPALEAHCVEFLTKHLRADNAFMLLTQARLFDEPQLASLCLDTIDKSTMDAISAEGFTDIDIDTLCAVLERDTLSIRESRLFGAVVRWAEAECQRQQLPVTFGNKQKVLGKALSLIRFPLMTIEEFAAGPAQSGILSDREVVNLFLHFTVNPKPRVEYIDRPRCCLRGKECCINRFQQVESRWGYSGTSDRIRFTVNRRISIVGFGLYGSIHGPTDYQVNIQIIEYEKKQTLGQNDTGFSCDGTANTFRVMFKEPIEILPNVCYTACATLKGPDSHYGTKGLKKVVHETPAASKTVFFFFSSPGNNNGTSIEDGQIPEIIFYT
UniProt Q9H7H0: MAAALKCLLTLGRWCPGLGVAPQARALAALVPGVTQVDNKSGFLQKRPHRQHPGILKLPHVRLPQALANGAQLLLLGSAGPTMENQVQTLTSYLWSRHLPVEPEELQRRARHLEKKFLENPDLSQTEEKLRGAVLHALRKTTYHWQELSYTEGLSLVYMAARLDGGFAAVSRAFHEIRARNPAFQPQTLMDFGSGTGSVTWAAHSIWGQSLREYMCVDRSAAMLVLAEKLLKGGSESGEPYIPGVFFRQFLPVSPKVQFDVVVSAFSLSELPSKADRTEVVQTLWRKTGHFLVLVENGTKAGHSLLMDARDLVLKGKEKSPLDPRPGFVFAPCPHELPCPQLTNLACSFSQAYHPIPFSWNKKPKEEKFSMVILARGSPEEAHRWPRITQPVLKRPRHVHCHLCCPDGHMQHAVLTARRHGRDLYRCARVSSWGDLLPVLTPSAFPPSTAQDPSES
UniProt Q9H9Y4: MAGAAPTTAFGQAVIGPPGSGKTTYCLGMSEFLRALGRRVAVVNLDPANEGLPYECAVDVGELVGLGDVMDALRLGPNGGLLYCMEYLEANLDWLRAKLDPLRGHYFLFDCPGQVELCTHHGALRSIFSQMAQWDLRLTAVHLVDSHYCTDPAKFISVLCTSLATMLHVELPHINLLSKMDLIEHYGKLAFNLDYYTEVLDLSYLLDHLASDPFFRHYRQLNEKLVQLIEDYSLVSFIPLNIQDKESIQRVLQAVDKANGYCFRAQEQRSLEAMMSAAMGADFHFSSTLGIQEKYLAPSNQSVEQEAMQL
UniProt Q9GZS1, whole entry: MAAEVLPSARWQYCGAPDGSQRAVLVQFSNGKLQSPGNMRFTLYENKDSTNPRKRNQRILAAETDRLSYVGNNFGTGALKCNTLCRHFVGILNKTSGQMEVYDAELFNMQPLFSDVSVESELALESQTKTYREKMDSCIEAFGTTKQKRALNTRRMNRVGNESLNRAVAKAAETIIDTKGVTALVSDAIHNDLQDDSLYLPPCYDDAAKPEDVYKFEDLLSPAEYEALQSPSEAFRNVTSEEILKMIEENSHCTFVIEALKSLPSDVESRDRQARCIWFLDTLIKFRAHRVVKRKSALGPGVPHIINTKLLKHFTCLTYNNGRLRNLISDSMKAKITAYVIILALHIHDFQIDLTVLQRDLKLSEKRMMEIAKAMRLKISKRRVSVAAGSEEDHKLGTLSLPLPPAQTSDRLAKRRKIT
UniProt Q9H300: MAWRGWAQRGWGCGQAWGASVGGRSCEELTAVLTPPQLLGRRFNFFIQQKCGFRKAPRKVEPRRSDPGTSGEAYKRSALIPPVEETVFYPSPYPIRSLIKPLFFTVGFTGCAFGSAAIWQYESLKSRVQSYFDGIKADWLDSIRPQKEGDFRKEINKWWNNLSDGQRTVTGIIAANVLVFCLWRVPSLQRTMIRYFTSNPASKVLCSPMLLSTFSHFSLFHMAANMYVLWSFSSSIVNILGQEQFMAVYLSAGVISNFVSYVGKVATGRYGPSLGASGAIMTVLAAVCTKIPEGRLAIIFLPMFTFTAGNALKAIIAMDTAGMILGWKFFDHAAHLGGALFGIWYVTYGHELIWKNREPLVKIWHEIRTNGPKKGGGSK
UniProt Q9H0J9: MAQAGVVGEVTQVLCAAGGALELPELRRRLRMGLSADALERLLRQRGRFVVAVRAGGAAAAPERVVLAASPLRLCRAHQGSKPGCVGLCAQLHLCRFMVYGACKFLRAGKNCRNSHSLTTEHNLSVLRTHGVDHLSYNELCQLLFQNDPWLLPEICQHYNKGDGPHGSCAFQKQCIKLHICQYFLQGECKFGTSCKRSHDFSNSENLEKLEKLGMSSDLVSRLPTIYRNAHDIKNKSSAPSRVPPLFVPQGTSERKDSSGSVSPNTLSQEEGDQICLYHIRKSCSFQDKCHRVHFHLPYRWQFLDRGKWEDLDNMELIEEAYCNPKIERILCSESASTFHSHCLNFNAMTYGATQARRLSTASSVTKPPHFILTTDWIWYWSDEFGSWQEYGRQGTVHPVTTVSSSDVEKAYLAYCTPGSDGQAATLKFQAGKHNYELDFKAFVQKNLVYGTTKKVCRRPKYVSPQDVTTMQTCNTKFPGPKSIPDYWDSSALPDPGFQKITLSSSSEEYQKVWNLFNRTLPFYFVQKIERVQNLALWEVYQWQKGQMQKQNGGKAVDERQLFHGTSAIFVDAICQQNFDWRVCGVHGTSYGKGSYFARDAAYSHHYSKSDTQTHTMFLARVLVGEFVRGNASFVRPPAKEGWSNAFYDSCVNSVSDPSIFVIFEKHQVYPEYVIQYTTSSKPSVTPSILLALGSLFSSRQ
UniProt Q9H270: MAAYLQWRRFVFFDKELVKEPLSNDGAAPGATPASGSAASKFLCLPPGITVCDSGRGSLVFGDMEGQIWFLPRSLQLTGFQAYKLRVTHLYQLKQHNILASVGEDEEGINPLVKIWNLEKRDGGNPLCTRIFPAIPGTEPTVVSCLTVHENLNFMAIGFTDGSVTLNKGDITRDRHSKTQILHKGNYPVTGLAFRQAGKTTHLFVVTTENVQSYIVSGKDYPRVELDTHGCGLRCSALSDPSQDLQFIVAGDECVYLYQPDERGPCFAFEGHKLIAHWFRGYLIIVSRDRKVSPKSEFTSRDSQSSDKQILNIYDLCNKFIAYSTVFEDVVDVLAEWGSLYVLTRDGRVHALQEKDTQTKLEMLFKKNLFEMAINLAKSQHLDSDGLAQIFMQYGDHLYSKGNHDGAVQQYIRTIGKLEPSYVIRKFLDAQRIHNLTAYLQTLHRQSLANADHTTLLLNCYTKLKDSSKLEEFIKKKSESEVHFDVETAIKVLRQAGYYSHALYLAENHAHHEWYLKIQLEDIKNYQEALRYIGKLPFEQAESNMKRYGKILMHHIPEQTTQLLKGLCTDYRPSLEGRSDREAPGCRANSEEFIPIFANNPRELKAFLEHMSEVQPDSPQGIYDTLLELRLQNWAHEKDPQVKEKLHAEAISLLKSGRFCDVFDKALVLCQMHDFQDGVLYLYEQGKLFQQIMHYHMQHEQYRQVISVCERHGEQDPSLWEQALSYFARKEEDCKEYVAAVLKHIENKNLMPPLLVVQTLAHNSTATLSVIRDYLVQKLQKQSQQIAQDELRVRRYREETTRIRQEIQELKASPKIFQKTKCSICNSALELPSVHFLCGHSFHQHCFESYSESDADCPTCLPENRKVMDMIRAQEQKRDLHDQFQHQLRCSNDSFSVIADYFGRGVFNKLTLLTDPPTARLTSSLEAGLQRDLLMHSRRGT
UniProt Q9H0A0: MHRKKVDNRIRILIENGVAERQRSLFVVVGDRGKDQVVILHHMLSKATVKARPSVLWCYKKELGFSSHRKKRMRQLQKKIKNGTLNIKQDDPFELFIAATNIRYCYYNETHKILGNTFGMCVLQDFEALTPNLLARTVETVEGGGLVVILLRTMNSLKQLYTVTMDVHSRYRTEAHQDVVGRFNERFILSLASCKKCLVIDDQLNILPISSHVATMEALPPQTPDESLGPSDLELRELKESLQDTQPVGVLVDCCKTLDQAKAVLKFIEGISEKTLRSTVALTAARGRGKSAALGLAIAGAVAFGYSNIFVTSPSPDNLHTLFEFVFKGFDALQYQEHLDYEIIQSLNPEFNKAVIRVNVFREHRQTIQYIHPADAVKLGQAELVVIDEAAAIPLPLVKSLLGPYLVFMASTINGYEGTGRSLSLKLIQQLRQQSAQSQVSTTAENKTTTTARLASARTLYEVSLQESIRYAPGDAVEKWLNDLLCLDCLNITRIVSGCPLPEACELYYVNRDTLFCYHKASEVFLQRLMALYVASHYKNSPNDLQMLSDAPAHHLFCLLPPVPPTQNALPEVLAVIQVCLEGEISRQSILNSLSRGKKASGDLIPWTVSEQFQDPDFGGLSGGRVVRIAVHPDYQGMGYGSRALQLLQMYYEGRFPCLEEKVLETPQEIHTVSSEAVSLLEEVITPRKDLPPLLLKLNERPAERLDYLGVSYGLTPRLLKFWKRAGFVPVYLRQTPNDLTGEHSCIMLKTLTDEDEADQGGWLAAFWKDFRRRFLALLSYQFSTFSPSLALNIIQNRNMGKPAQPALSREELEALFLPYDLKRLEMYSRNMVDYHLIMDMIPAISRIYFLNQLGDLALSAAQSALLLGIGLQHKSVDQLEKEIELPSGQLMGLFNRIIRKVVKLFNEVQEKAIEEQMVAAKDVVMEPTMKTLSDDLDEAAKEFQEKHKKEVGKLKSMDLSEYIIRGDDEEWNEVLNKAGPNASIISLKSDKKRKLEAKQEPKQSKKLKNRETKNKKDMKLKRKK
UniProt Q9H7C9: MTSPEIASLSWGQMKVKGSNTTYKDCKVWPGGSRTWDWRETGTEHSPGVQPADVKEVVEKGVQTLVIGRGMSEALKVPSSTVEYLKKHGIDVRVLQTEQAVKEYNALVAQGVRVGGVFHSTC
UniProt Q9HA64: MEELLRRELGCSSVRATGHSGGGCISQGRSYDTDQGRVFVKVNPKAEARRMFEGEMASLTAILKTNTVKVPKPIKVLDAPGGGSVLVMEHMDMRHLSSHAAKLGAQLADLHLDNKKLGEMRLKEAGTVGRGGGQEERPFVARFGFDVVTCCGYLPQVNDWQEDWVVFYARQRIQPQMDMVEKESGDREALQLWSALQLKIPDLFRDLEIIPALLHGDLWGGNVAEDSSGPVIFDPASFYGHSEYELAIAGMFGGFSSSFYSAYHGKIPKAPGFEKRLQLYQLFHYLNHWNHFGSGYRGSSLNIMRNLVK
UniProt Q9HD34: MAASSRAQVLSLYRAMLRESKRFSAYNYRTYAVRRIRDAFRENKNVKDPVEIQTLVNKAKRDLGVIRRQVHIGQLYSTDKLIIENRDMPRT
UniProt Q9H0C8: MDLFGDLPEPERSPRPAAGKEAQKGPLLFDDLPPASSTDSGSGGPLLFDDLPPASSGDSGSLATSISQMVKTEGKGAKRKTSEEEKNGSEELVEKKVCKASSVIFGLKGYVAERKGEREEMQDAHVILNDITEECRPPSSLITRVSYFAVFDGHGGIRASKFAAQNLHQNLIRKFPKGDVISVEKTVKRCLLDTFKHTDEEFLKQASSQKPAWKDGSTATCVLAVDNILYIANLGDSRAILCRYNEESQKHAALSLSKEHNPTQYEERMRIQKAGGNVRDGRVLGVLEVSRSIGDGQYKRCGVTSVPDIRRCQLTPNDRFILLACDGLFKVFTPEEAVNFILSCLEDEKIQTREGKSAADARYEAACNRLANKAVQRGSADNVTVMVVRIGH

Compound in one assay: Nc1ncnc2c1ncn2[C@@H]1O[C@H](COP(=O)(O)OP(=O)(O)NP(=O)(O)O)[C@@H](O)[C@H]1O [adenylyl imidodiphosphate]
Nature of the assay: NP40-soluble protein abundance relative to vehicle (solubility fold change) (ratio); higher = more soluble protein in presence of AMP-PNP. As to conditions: concentration: 0.1mM. An outline of the steps:
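Data come from three independent experiments in which Dounce-homogenised Jurkat crude lysate was treated at eight concentrations from 0.1 to 10 mM. Treatment ran 10 min at room temperature and then 3 min at 37 °C, after which 0.8% NP40 and benzonase were added for 60 min at 4 °C before ultracentrifugation. The supernatant underwent TMT labelling and LC-MS/MS, and vsn-normalised intensities were expressed as fold change against the detergent-processed vehicle in each replicate.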
Turning to UniProt Q9HAF1 and related entries, the NP40-soluble protein abundance is 0.972 ± 0.017.
As to TFB2M (UniProt Q9H5Q4), the NP40-soluble protein abundance stood at 1.01 ± 0.033.
The same measure, in the same setting: the result for UniProt Q9GZM8 and related entries reads 1.01 ± 0.036.
As for UniProt Q9H773 and related entries, the NP40-soluble protein abundance came out at 1.017 ± 0.002.
ETNK1 (UniProt Q9HBU6): the NP40-soluble protein abundance came to 1.02 ± 0.042.
On to LRRC40 (UniProt Q9H9A6), for which the NP40-soluble protein abundance was found to be 1.01 ± 0.047.
Still for that read-out and setting: the figure for SUDS3 (UniProt Q9H7L9) is 0.956 ± 0.018.
Still for that read-out and setting: the result for UniProt Q9H0C5 and related entries reads 0.985 ± 0.034.
On the same count and under the same terms, the figure for XAB2 (UniProt Q9HCS7) is 1.07 ± 0.057; for UniProt Q9BZQ6-2 it is 1 ± 0.021; for UniProt Q9H2G2-2 it is 0.974 ± 0.02.
On to UniProt Q9H7H0 and related entries, for which the NP40-soluble protein abundance turned out to be 1.01 ± 0.047.
Still for that read-out and setting: the result for DHX33 (UniProt Q9H6R0) reads 1.02 ± 0.078; that for GPN2 (UniProt Q9H9Y4), 0.991 ± 0.01; that for UniProt Q9GZY4, 0.964 ± 0.012.
Same read-out and setting: the figure for UniProt Q9GZS1-2 is 0.997 ± 0.024; for UniProt Q9H993 it is 1.01 ± 0.037.
Take UniProt Q9H300 and related entries: the NP40-soluble protein abundance is 1.01 ± 0.055.
Same read-out and setting: the result for PARP12 (UniProt Q9H0J9) reads 0.999 ± 0.025.
On the same count and under the same terms, the result for ANKRA2 (UniProt Q9H9E1) reads 0.987 ± 0.091; that for UniProt Q9H0R4 and related entries, 0.9878 ± 0.0088.
The same measure, in the same setting: the result for UniProt Q9H270 and related entries reads 1.02 ± 0.037.
On to EGLN1 (UniProt Q9GZT9), for which the NP40-soluble protein abundance is 0.987 ± 0.019.
Regarding ACBD3 (UniProt Q9H3P7), the NP40-soluble protein abundance was found to be 1 ± 0.032.
On the same count and under the same terms, the figure for UniProt Q9H0A8 and related entries is 1.01 ± 0.024; for UniProt Q9H0A0 and related entries it is 1.35 ± 0.23; for UniProt Q9H7C9 and related entries it is 0.955 ± 0.021.
Same read-out and setting: the result for SEMA4C (UniProt Q9C0C4) reads 0.995 ± 0.043; that for FN3KRP (UniProt Q9HA64), 1.01 ± 0.011; that for UniProt Q9H832 and related entries, 1.01 ± 0.038.
As to UniProt Q9HD33 and related entries, the NP40-soluble protein abundance turned out to be 1.06 ± 0.038.
Still for that read-out and setting: the figure for RRAGC (UniProt Q9HB90) is 1 ± 0.032; for UniProt Q9H0X9 and related entries it is 0.983 ± 0.015.
Take UniProt Q9HBL7: the NP40-soluble protein abundance was 1.02 ± 0.056.
Still for that read-out and setting: the result for UniProt Q9HD20 and related entries reads 1.02 ± 0.013; that for LYRM4 (UniProt Q9HD34), 0.984 ± 0.041; that for ILKAP (UniProt Q9H0C8), 0.983 ± 0.017.
Still for that read-out and setting: the result for UniProt Q9H6W3 reads 1.01 ± 0.04.

Staying with this assay, now noted: concentration: 0.5mM.
On to UniProt Q9HAF1 and related entries, for which the NP40-soluble protein abundance turned out to be 1 ± 0.026.
The same measure, in the same setting: the result for TFB2M (UniProt Q9H5Q4) reads 0.993 ± 0.036; that for UniProt Q9GZM8 and related entries, 1.01 ± 0.03; that for UniProt Q9H773 and related entries, 1.05 ± 0.026.
Still for that read-out and setting: the figure for ETNK1 (UniProt Q9HBU6) is 0.979 ± 0.062; for LRRC40 (UniProt Q9H9A6) it is 0.977 ± 0.034.
As for SUDS3 (UniProt Q9H7L9), the NP40-soluble protein abundance was found to be 0.985 ± 0.057.
On the same count and under the same terms, the result for UniProt Q9H0C5 and related entries reads 0.947 ± 0.1; that for XAB2 (UniProt Q9HCS7), 1 ± 0.044.
With UniProt Q9BZQ6-2, the NP40-soluble protein abundance amounted to 0.988 ± 0.025.
Same read-out and setting: the figure for UniProt Q9H2G2-2 is 1.01 ± 0.024; for UniProt Q9H7H0 and related entries it is 0.975 ± 0.029; for DHX33 (UniProt Q9H6R0) it is 0.995 ± 0.025.
Still for that read-out and setting: the result for GPN2 (UniProt Q9H9Y4) reads 0.996 ± 0.044; that for UniProt Q9GZY4, 0.986 ± 0.038.
Turning to UniProt Q9GZS1-2, the NP40-soluble protein abundance was 0.971 ± 0.033.
Still for that read-out and setting: the result for UniProt Q9H993 reads 1.03 ± 0.019; that for UniProt Q9H300 and related entries, 1.07 ± 0.065; that for PARP12 (UniProt Q9H0J9), 0.986 ± 0.022.
Same read-out and setting: the result for ANKRA2 (UniProt Q9H9E1) reads 0.985 ± 0.035; that for UniProt Q9H0R4 and related entries, 1.03 ± 0.046.
Same read-out and setting: the result for UniProt Q9H270 and related entries reads 0.998 ± 0.045.
In the case of EGLN1 (UniProt Q9GZT9), the NP40-soluble protein abundance came to 0.989 ± 0.02.
Same read-out and setting: the result for ACBD3 (UniProt Q9H3P7) reads 0.989 ± 0.024.
The same measure, in the same setting: the figure for UniProt Q9H0A8 and related entries is 1.01 ± 0.031.
Same read-out and setting: the figure for UniProt Q9H0A0 and related entries is 1.43 ± 0.097; for UniProt Q9H7C9 and related entries it is 1.02 ± 0.061; for SEMA4C (UniProt Q9C0C4) it is 1.01 ± 0.013.
On to FN3KRP (UniProt Q9HA64), for which the NP40-soluble protein abundance came out at 1 ± 0.047.
Same read-out and setting: the figure for UniProt Q9H832 and related entries is 0.976 ± 0.026; for UniProt Q9HD33 and related entries it is 1.03 ± 0.057.
Turning to RRAGC (UniProt Q9HB90), the NP40-soluble protein abundance was determined as 1.01 ± 0.03.
For UniProt Q9H0X9 and related entries, the NP40-soluble protein abundance is 0.945 ± 0.037.
On to UniProt Q9HBL7, for which the NP40-soluble protein abundance came to 1.03 ± 0.033.
The same measure, in the same setting: the result for UniProt Q9HD20 and related entries reads 1.04 ± 0.054.
Take LYRM4 (UniProt Q9HD34): the NP40-soluble protein abundance is 0.989 ± 0.054.
Still for that read-out and setting: the figure for ILKAP (UniProt Q9H0C8) is 0.9723 ± 0.0095; for UniProt Q9H6W3 it is 0.98 ± 0.069.

The record behind these values is the supplement of paper PMC6411743.
